Assay results reported in PMC3094350.
Results are given in words; binding and its absence hold for the method and conditions named. In cells and extracts the contact can be indirect. Some binding calls cover weakened binding; strength is not graded here.

Chains of the proteins cited; added tags and fusions are not shown.
UniProt Q14289: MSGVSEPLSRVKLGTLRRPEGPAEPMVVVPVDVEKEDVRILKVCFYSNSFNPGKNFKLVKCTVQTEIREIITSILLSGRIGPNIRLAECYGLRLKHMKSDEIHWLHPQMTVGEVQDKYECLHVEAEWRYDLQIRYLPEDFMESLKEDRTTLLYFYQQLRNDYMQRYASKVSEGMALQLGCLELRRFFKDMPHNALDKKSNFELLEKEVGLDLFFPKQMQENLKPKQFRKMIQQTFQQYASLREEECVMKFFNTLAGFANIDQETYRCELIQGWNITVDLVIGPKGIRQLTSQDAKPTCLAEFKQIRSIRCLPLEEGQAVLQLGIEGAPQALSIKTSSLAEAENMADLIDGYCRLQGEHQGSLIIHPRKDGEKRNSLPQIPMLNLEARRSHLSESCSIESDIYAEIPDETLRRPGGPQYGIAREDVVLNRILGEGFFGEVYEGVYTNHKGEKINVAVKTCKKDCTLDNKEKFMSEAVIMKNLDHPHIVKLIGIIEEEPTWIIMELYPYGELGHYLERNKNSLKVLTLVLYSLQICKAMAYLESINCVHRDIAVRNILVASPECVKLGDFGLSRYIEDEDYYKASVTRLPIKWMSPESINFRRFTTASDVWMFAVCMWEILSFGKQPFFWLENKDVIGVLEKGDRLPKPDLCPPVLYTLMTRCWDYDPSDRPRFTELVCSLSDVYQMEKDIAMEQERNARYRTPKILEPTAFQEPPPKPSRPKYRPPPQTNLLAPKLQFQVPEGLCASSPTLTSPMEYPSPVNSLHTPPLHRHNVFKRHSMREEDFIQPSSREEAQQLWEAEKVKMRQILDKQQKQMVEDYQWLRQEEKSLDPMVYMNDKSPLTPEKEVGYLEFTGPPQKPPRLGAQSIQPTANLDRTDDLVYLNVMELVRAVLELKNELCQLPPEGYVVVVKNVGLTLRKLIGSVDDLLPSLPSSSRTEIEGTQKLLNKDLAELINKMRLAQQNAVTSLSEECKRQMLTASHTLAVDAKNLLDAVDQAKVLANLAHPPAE
UniProt Q8TDY2: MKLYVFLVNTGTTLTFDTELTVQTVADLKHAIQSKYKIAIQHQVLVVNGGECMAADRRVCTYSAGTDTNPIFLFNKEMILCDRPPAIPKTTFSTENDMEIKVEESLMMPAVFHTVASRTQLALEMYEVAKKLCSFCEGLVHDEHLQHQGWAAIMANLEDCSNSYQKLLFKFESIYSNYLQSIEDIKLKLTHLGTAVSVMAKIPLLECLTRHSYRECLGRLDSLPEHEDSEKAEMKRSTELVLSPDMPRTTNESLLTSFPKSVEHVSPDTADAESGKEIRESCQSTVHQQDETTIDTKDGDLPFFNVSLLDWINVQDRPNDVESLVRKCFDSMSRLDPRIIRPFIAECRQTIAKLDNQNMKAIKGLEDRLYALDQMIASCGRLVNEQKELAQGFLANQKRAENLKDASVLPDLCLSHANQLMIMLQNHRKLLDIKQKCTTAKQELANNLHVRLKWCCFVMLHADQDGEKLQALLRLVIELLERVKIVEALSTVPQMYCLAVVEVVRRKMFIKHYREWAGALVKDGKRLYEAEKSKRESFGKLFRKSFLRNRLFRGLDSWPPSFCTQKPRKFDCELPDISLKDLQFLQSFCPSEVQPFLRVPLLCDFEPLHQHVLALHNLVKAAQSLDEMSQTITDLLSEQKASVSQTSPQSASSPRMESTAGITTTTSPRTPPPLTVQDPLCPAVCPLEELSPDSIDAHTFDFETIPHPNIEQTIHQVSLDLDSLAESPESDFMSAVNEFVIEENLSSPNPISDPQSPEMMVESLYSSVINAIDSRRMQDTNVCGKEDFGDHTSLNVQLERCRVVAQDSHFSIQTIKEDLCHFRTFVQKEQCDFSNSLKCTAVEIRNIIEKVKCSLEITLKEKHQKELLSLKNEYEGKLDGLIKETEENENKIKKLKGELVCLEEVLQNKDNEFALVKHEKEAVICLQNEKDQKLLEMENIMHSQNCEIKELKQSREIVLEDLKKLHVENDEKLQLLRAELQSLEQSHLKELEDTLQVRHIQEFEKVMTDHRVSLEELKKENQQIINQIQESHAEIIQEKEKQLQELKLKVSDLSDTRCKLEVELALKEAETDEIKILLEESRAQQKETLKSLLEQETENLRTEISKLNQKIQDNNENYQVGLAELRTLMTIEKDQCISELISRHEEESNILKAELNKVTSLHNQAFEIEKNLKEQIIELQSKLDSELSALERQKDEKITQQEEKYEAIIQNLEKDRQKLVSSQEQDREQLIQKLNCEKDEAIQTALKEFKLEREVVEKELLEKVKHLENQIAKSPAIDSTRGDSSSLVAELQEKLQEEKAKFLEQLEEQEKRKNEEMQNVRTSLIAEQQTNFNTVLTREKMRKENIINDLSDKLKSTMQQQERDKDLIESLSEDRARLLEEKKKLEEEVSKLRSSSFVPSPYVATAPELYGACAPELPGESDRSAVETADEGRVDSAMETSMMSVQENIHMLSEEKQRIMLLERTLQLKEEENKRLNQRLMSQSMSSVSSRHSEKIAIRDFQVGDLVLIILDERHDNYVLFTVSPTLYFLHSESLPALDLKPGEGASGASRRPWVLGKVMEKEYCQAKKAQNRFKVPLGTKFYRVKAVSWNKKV

What was measured:
[1] = biological target: proline-rich tyrosine kinase 2 (Pyk2) (human (endogenous in U-87MG and primary human brain MvEC)) (UniProt Q14289); assay: co-IP; endogenous proteins from primary human brain MvEC in complete media, treated with siFIP200 or mutant siFIP200 (72-96 h); 1% NP40 lysis buffer; 50 to 200 ug lysate with 5-10 ug antibody, TrueBlot anti-rabbit IP beads overnight at 4°C; immunoblot
[2] = biological target: proline-rich tyrosine kinase 2 (Pyk2) (human (endogenous in U-87MG and primary human brain MvEC)) (UniProt Q14289); assay: co-IP; endogenous proteins from U-87MG cells in complete media, treated with siFIP200 or mutant siFIP200 (72-96 h); 1% NP40 lysis buffer; 50 to 200 ug lysate with 5-10 ug antibody, TrueBlot anti-rabbit IP beads overnight at 4°C; immunoblot

binding [1]: binds
binding [2]: binds
Substance: focal adhesion kinase family interacting protein of 200-kDa (FIP200) (from UniProt Q8TDY2 1-1594)
